Source: PubChem BioAssay AID1053133 (Broad Institute, 2014).

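Vaccinia-infected cells with a two-color viral stage reporter; Venus fluorescence read on a plate reader; the cell line is not named here; timing not stated here.
The test concentration is not given here.
Percent change in Venus reporter signal; lower (more negative) values mean stronger inhibition of that viral stage.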

Values are in %.
How 0% and 100% were set is not given here.
Common to all entries: measured here: Venus reporter, other viral stage.
Part of the compounds only, not a random draw; the main read-out is not listed here.

* CNC[C@@H]1Oc2cc(C#Cc3ccc(F)cc3)ccc2S(=O)(=O)N([C@@H](C)CO)C[C@H]1C : activity change (Venus) -30.1%
* Cc1ccc(-c2ccc3c(c2)O[C@@H](CN(C)Cc2ccncc2)[C@@H](C)CN([C@@H](C)CO)S3(=O)=O)cc1 : activity change (Venus) -33.73%
* C[C@@H]1CN([C@@H](C)CO)S(=O)(=O)c2ccc(C#CC3CCCCC3)cc2O[C@H]1CN(C)C(=O)Cc1ccncc1 : activity change (Venus) -44%
* CCCNC(=O)N1[C@@H](C#N)[C@H](c2ccc(-c3cccc(OC)c3)cc2)[C@@H]1CO : activity change (Venus) -34.16%
* O=C(c1ccccc1F)N1CC(=O)N2[C@@H](CO)[C@@H](c3ccc(C#Cc4ccc(F)cc4)cc3)[C@@H]2C1 : activity change (Venus) -88.51%
* COc1cccc(S(=O)(=O)N(C)C[C@@H]2Oc3cc(C4=CCCCC4)ccc3S(=O)(=O)N([C@@H](C)CO)C[C@H]2C)c1 : activity change (Venus) -29.55%
* COc1ccc2c3c([nH]c2c1)[C@@H](CO)N(C(=O)C1CCC1)CC31CN(Cc2cccc(F)c2)C1 : activity change (Venus) -47.54%
* Cc1ccc(S(=O)(=O)N2CC[C@@H]3[C@H]2c2cc(-c4cccc(C(=O)N(C)C)c4)ccc2N[C@@H]3CO)cc1 : activity change (Venus) -33.35%
* COc1ccc(CN(C)C[C@H]2OCCCC[C@H](C)Oc3ccc(NC(=O)C4CCCCC4)cc3C(=O)N([C@H](C)CO)C[C@H]2C)cc1 : activity change (Venus) -45.56%
* COc1ccc(-c2ccc3c(c2)[C@@H]2[C@@H](CCN2S(=O)(=O)c2ccccc2F)[C@H](CO)N3C)cc1 : activity change (Venus) -42.62%
* C[C@H]1CCCCO[C@H](CN(C)C(=O)Nc2ccc(C(F)(F)F)cc2)[C@@H](C)CN([C@@H](C)CO)C(=O)c2cc(NS(=O)(=O)c3cn(C)cn3)ccc2O1 : activity change (Venus) -26.49%
* CCCC#Cc1ccc([C@H]2[C@H]3CN(C(=O)NC4CCCC4)CCCCN3[C@H]2CO)cc1 : activity change (Venus) -41.12%
* O=C(C[C@@H]1C=C[C@H](NC(=O)c2ccccc2)[C@H](CO)O1)Nc1ccc(-c2ccccc2)cc1 : activity change (Venus) -32.2%
* CC(C)CC#Cc1ccc([C@H]2[C@@H](CO)N3CCCCN(C(=O)NC4CCCC4)C[C@@H]23)cc1 : activity change (Venus) -29.31%
* C[C@@H]1CN([C@@H](C)CO)C(=O)c2cc(NC(=O)Nc3ccc(F)cc3)ccc2O[C@H]1CN(C)Cc1ccc(-c2ccccc2)cc1 : activity change (Venus) -30.26%
* C[C@@H]1CCCCO[C@H](CN(C)Cc2ccc3c(c2)OCO3)[C@H](C)CN([C@H](C)CO)C(=O)c2cc(NS(=O)(=O)c3ccccc3)ccc2O1 : activity change (Venus) -46.6%
* COc1ccccc1NC(=O)N1CC(=O)N2[C@H](CO)[C@@H](c3ccc(-c4cccc(C)c4)cc3)[C@@H]2C1 : activity change (Venus) -36.83%
* COc1ccc(C#Cc2ccc([C@@H]3[C@H](CO)N4CCCCN(C(=O)c5ccncc5)C[C@@H]34)cc2)cc1 : activity change (Venus) -44.14%
* COc1ccccc1C#Cc1ccc([C@@H]2[C@H]3CN(C(=O)C4CC4)CCCCN3[C@H]2CO)cc1 : activity change (Venus) -40.79%

2 of the entries, repeated:

- CCCNC(=O)N1[C@@H](C#N)[C@H](c2ccc(-c3cccc(OC)c3)cc2)[C@@H]1CO | activity change (Venus) -34.16%
- C[C@H]1CCCCO[C@H](CN(C)C(=O)Nc2ccc(C(F)(F)F)cc2)[C@@H](C)CN([C@@H](C)CO)C(=O)c2cc(NS(=O)(=O)c3cn(C)cn3)ccc2O1 | activity change (Venus) -26.49%